## Screening data, single-dose tests

The values are deposited in ChEMBL (CHEMBL3988442, “University of Dundee, Small-Polar-MMV Screening Library” (2021)).

T. brucei: 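Whole-parasite assay of Trypanosoma brucei over 72 hours; the read-out is not stated. Tested at 30 µM. The record gives no direction; compounds that gave an IC50 in retests scored well above the rest, so higher reads as stronger inhibition. Values scatter widely below zero; nearly all retest evidence comes from the higher of the two concentrations used. About 64,000 compounds were tested under these conditions; 1.5% (about 940) showed 50% or more at least once.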
Toxoplasma: 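Assay of Toxoplasma gondii numbers, read through their beta-galactosidase reporter with a colour substrate. Compounds at 10 µM. The record gives no direction; the compounds picked for IC50 retests had high values, so higher reads as fewer parasites. About 67,000 compounds were tested under these conditions; 0.38% (about 260) showed 50% or more at least once.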

Each number is a percent effect as filed.
The controls that fix the scale are not given in the record; negative values are as filed.
The compounds are a random part of those screened.
A dash means the value is not listed here; it may have been measured.

| # | Compound | T. brucei | Toxoplasma |
|---|---|---|---|
| 1 | `CN(Cc1nccn1CC(F)(F)F)C(=O)c1ccc(F)cc1F` | 46.83% | 1.961% |
| 2 | `[H][C@]12CC[C@]([H])(CN(C3Cc4ccccc4C3)C1)N(C(=O)c1ccc[nH]1)C2` | 9.286% | -4.094% |
| 3 | `COc1ccc(C(=O)NCCNC(=O)c2cncnc2C)cc1` | -11.11% | -4.307% |
| 4 | `COc1c(C2CCCN2c2ncnc3c2CCC3)c(C)nn1C` (configuration not stated) | -35.61% | 1.186% |
| 5 | `Cc1cc(-n2cncn2)n2ncnc2n1` | -19.66% | 7.033% |
| 6 | `CC(C)CN1CCC2(CCN(CC3CC3)CC2)C1=O.O=C(O)C(F)(F)F` | -37.84% | 7.37% |
| 7 | `CCN(CC)c1ccc(C(=O)N2CCCC2Cn2cc(C)cn2)cn1` (configuration not stated) | -3.029% | -4.225% |
| 8 | `OCCc1cc(CC2(NCc3ccc(C(F)(F)F)cc3)COC2)no1` | 2.231% | 1.232% |
| 9 | `CNC(=O)[C@@H](C1CCCCC1)N1CCC[C@H]1C(=O)NC1CC1` | -7.429% | 3.218% |
| 10 | `CCN(CC1CCOC1)C(=O)c1ccc(N(C)C)cc1F` (configuration not stated) | -20.84% | 3.532% |
| 11 | `N[C@@H]1CCN(Cc2ccccc2CS(=O)(=O)c2ccccc2)C[C@H]1O` | -14.69% | - |
| 12 | `Cc1nc(C)n(CC2CCCCN2CC(=O)Nc2nnc(C)s2)n1` (configuration not stated) | -7.545% | -20.09% |
| 13 | `Cc1ccc(C(=O)N2CC(C(N)=O)O[C@H](C)C2)c(C)c1` (some centres not stated) | -30.45% | 1.77% |
| 14 | `O=C(c1ccc2[nH]nnc2c1)N1C[C@H](O)[C@]2(CCCO2)C1` | -16.76% | 10.49% |
| 15 | `O=C(O)C(F)(F)F.[H][C@@]12CN(CC)C[C@]1([H])[C@@H](OC)CCN2C(=O)c1cc(C)nn1CC` | -111.1% | -24.74% |
| 16 | `CCC(CO)NC(=O)NCc1cc(C#N)ccc1F` (configuration not stated) | -17.54% | -3.733% |
| 17 | `COc1ccc(CCC2CCCN(CC(=O)O)C2)cc1` (configuration not stated) | 1.509% | -11.5% |
| 18 | `O=C(CSCC1CC1)N1CCCN(c2ccc(F)cc2)CC1` | 23.84% | -4.545% |
| 19 | `COCCOc1ccc(S(=O)(=O)Nc2cccnc2O)cc1C` | -51.9% | 4.849% |
| 20 | `COc1ccccc1CNCc1nn(-c2ccccc2)c2c1CCC2` | 105.2% | 1.51% |
| 21 | `O=C(NCCc1ccccc1)C1CCC(Cn2cnnn2)CC1` (configuration not stated) | 56% | -1.793% |
| 22 | `CN(CCCc1cnn(C)c1)C(=O)Nc1cccc2[nH]nnc12` | 1.145% | 3.808% |
| 23 | `CC(C)c1nc(CN(C)C(=O)CNS(=O)(=O)c2cccs2)no1` | 34.46% | -5.775% |
| 24 | `CC(C(=O)Nc1ncccn1)N1CCC(n2ccnc2)CC1` (configuration not stated) | -21.38% | -2.997% |
| 25 | `O=C(c1ccc(C2CCCO2)s1)N1CCN(c2ccccc2F)CC1` (configuration not stated) | 2.033% | -4.155% |
| 26 | `CN1CCCc2cc(CNC(=O)c3cccnc3O)ccc21` | 11.78% | -22.67% |
| 27 | `CSc1ccc(C(=O)C2CCCN(C(=O)CCn3cnnn3)C2)cc1` (configuration not stated) | -25.8% | 23.51% |
| 28 | `CC(NC(=O)Cn1cccnc1=O)c1ccc(OC(F)(F)F)cc1` (configuration not stated) | -16.66% | -4.58% |
| 29 | `CCC/C=C/c1ccc(CN2CCN(C)CC2)cn1` | 21.41% | 1.888% |
| 30 | `CNC(=O)C1(c2cnccn2)CCCN1C(=O)c1ccn(C)n1` (configuration not stated) | 13.39% | 26.07% |
| 31 | `CC1(C)C(C(=O)NCCC2CN(Cc3c[nH]cn3)CCO2)C1(C)C` (configuration not stated) | -5.433% | -1.747% |
| 32 | `O=C(NC1(c2nccs2)CCCC1)c1cc(C2CC2)on1` | -16.53% | -6.391% |
| 33 | `Fc1ccc2c(c1)C(NCc1nnc3n1CCCCC3)CCCO2` (configuration not stated) | -8.904% | 4.944% |
| 34 | `Cc1ncccc1OC1(C(=O)NCCCN2CCOCC2)CCNCC1` | -13.64% | -4.27% |
| 35 | `CCc1ncc2c(n1)CN(CCCc1nc3ccccc3o1)CC2` | 3.063% | 14.39% |
| 36 | `CC(C)Cn1cc(NC(=O)N2CCCC2)cn1` | - | -15.58% |
| 37 | `COC(CNC(=O)c1cn(C)nn1)c1ccc(C)s1` (configuration not stated) | -23.85% | -8.069% |
| 38 | `Cc1csc2c(C3CCCN(C(=O)CCn4ccnc4)C3)nc(C)n12` (configuration not stated) | -9.199% | 18.96% |
| 39 | `CCn1nc2c(cc1=O)CN(Cc1nnc(C3CC3)o1)CC2` | 9.166% | 1.122% |
| 40 | `Cc1cc(N(C)C)nc(N2CCn3c(nnc3C3CC3)C2)n1` | -20.34% | 2.393% |
| 41 | `CCCn1nccc1-c1nccnc1CC1CCN(C(C)=O)C1` (configuration not stated) | -3.679% | 3.275% |
| 42 | `O=C(O)[C@@H]1CN(C(=O)c2cc(C3CC3)n[nH]2)C[C@H]1c1cccc(F)c1` | 16.73% | 10.2% |
| 43 | `COc1c[nH]c(C(=O)N2CCN(c3ccc(Cl)cc3)CC2)cc1=O` | -6.525% | 16.49% |
| 44 | `[H][C@]12CN(Cc3cnn(C)c3)C[C@@]1([H])OCCN(C(=O)c1cccn1C)C2` | -85.46% | 8.753% |
| 45 | `CCC1=NC(SCC(=O)c2ccccc2)c2cc(CC)sc2N1` (configuration not stated) | 16.35% | 88.55% |
| 46 | `O=C(CN1CCCC1Cn1cncn1)NCCc1c(F)cccc1F` (configuration not stated) | 2.636% | -6.34% |
| 47 | `CC(=O)c1ccc(C(=O)NCCCOC(C)c2ccccc2)s1` (configuration not stated) | 39.15% | -2.061% |
| 48 | `Cc1nnsc1CN(C)C(=O)CCn1cnc2ccccc21` | -19.02% | 1.826% |
| 49 | `Cc1ccc(C(C(=O)N2CC(c3ccccn3)C2)N(C)C)cc1` (configuration not stated) | -31.84% | -6.568% |
| 50 | `[H][C@@]12OCCN(S(=O)(=O)C3CC3)[C@@]1([H])CC[C@H]2OCC` | -6.128% | 28.16% |
| 51 | `[H][C@@]12CCCO[C@]1([H])[C@@H](OCc1cccnc1)CN2C(=O)C1=CCCC1` | 10.5% | 9.972% |
| 52 | `CC(=O)Nc1ccc(C(=O)N(C)C(C)Cc2cc(C)ccn2)cn1` (configuration not stated) | -60.11% | -11.8% |
| 53 | `O=C(NC1CCCc2c1[nH]c1ccc(F)cc21)c1n[nH]c2c1CCCC2` (configuration not stated) | -7.659% | - |
| 54 | `CN(C)C(C(=O)NCc1cc(C(C)(C)C)n[nH]1)c1ccc(F)cc1` (configuration not stated) | -46.31% | 11.59% |
| 55 | `[H][C@@]12OCCN(C(=O)COc3ccc(F)cc3)[C@@]1([H])CC[C@H]2OC` | - | -3.604% |
| 56 | `COc1ccc(C[C@H]2CN(c3nnc(C)s3)CC[C@H]2OC)cc1.O=C(O)C(F)(F)F` | 13.22% | -3.448% |
| 57 | `CC(Sc1nncn1C)C(=O)NCCCOc1ccc(F)cc1` (configuration not stated) | - | 2.835% |
| 58 | `CCN1CC(C(=O)NCCn2cccc2)CCC1=O` (configuration not stated) | -0.3103% | -1.627% |
| 59 | `CC(C)Oc1ncnc2c1CCN(c1cc(C(F)(F)F)ncn1)CC2` | 10.52% | 1.232% |
| 60 | `Cc1nn(C)c(Cl)c1C1CCCN1CC(=O)NCc1ccco1` (configuration not stated) | 14.54% | -39.51% |
| 61 | `CCCNC(=O)N1CCc2ccc(S(=O)(=O)N3CCN(C)CC3)cc2C1` | -11.57% | 8.827% |
| 62 | `CCn1c(C2CCNCC2)nn(CCn2ccc(C)n2)c1=O` | -12.7% | 1.952% |
| 63 | `N#Cc1cccc(C(=O)N2CCc3c(COCC4CC4)cncc3C2)c1.O=C(O)C(F)(F)F` | -30.25% | -1.323% |
| 64 | `CCC(C)CN1CCC(n2cc(C3CCCCC3)nn2)CC1` (configuration not stated) | -3.529% | 1.379% |
| 65 | `Cn1cc(NC(=O)N2CCC(Cc3ccccc3)CC2)ccc1=O` | 8.576% | 7.042% |
| 66 | `CC(C)COCCC(=O)Nc1cc(-n2nnnc2C2CC2)ccc1F` | -10.15% | -1.308% |
| 67 | `O=C(Nc1nc2c(s1)CN(S(=O)(=O)C1CC1)CC2)c1ccsc1` | -0.3687% | -22.56% |
| 68 | `O=C(O)C(F)(F)F.[H][C@@]12COC[C@]1(CNS(C)(=O)=O)CN(Cc1ccc3c(c1)OCO3)C2` | 3.621% | -14.52% |
| 69 | `O=C(Nc1ccccc1)[C@H]1O[C@H](CCN2CCNCC2)CC[C@@H]1O` | 3.167% | 11.13% |